{"sequences": {"note": "Amino acid sequences for entries named in this document (tags omitted). Residues count along the entry.", "UniProt P04133, residues 2-952": "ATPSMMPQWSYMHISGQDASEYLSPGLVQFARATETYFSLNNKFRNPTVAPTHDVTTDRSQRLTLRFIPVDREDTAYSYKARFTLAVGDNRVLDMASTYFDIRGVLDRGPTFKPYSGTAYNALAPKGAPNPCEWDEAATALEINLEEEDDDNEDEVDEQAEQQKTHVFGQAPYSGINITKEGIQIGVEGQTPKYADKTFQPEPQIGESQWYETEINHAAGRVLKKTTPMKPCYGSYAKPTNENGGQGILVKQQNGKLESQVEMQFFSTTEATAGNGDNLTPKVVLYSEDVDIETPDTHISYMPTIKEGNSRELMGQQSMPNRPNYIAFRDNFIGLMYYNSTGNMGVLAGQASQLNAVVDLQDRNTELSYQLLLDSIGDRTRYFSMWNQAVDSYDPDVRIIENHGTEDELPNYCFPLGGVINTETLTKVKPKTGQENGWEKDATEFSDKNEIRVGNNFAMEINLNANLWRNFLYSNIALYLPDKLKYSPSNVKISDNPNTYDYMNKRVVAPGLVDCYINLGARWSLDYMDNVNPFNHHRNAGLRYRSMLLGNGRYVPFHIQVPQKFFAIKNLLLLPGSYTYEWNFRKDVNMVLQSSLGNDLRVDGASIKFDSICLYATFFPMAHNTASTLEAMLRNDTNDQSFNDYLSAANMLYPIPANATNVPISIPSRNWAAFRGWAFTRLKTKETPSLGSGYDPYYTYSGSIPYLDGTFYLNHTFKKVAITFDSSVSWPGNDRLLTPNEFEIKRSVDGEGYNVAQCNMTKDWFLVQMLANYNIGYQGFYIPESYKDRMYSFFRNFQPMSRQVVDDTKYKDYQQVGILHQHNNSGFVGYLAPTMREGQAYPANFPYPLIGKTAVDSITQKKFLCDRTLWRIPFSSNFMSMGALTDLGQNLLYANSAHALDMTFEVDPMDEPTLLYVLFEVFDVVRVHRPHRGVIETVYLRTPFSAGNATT", "UniProt P24933": "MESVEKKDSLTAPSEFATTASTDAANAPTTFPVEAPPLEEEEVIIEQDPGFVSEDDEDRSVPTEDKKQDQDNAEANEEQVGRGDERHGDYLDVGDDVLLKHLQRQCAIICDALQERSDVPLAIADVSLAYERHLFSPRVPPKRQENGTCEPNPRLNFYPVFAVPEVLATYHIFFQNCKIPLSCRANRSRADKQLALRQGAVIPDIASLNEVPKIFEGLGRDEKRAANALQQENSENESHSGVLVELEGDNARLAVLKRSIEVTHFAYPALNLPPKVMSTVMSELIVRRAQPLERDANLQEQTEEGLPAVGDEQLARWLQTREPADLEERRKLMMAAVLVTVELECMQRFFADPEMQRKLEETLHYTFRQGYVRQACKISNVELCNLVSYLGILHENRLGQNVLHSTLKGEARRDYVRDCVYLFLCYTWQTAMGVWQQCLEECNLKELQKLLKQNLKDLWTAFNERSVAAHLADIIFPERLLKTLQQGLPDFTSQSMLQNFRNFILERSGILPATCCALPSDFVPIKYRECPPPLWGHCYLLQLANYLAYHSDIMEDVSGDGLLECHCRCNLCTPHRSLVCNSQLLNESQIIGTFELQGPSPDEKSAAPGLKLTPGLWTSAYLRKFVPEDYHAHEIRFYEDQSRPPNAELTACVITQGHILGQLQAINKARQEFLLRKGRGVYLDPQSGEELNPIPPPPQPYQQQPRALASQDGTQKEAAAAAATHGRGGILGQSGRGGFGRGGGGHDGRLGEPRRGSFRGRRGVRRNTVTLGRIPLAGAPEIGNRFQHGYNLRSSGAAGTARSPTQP"}, "source": "paper PMC4776158", "key": {"[1]": {"target": "hexon from Ad5 (5-Hexon) (adenovirus serotype 5) (UniProt P04133)", "assay": "native gel or EMSA; hexon plasmids co-transfected with the Ad5 L4-100K plasmid into HEK293; total cell extracts up to 96 h, hexon trimers separated by native-PAGE, immunoblot with anti-hexon goat pAbs"}, "[2]": {"target": "HA-tagged Ad5 L4-100K (adenovirus serotype 5) (UniProt P24933)", "assay": "native gel or EMSA; hexon plasmids co-transfected with Ad5 L4-100K; Western blotting 'as described above' with anti-hexon goat pAb for the hexon-L4-100K complex (~800kD); L4-100K detected with anti-HA mouse mAb"}, "[3]": {"target": "hexon expressed from the genomic plasmid pAd5 (adenovirus serotype 5) (UniProt P04133)", "assay": "native gel or EMSA; HEK293 transfected with genomic plasmids; total cell extracts, hexon trimers separated by native-PAGE, immunoblot with anti-hexon goat pAbs from serotype 5 and serotype 37"}}, "note": "Results are given in words; binding and its absence hold for the method and conditions named. Some entries that bind do so weakly or less than the wild type.", "data": [{"substance": "hexon from Ad5 (5-Hexon) (from UniProt P04133 2-952)", "values": [{"measurement": "binding", "setting": "[1]", "result": "binds"}, {"measurement": "binding", "setting": "[2]", "result": "no binding"}]}, {"substance": "hexon expressed from the genomic plasmid pAd5 (from UniProt P04133 2-952)", "values": [{"measurement": "binding", "setting": "[3]", "result": "binds"}]}]}
